Experimental data taken from patent publication US8093281B2, “Indazoles as glucocorticoid receptor ligands” (Glaxo Group Limited, priority 2005, dated 2012).
Some results were stated once for a whole list of compounds, not compound by compound.

The compounds below were run against T1, glucocorticoid receptor (Homo sapiens, UniProt P04150) (assay: Glucocorticoid receptor binding assay (fluorescence polarisation, competition with Alexa 555 labelled dexamethasone derivative)). Details: partially purified full length glucocorticoid receptor, 2 hrs room temperature.
T1 construct: a partially purified full length glucocorticoid receptor
T1 sequence (P04150 1-777): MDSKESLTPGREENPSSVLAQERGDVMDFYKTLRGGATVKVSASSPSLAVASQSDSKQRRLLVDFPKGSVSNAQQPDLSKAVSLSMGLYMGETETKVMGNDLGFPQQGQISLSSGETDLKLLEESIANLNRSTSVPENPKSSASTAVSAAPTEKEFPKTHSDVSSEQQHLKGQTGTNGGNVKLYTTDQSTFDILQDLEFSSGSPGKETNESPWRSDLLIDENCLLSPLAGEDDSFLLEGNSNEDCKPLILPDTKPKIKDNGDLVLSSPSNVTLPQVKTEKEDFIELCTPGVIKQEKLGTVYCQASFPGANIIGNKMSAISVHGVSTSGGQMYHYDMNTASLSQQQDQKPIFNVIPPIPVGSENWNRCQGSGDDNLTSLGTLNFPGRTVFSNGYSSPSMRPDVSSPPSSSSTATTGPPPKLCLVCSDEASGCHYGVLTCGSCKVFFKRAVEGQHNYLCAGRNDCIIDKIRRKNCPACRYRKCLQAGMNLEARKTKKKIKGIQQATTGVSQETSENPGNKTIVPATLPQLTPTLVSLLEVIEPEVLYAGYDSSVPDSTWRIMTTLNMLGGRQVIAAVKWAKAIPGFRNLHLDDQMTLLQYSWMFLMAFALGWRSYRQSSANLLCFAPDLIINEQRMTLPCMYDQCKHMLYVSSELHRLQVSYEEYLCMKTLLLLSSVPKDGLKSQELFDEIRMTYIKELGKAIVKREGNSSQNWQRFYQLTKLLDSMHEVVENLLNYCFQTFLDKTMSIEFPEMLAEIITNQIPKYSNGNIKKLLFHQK
`COc1ccc(F)cc1C(C)(C)CC(O)(CNc1cccc2c1cnn2-c1ccccc1)C(F)(F)F` (racemic) [Example 7, 1,1,1-Trifluoro-4-[5-fluoro-2-(methyloxy)phenyl]-4-methyl-2-{[(1-phenyl-1H-indazol-4-yl)amino]methyl}-2-pentanol] was tested, and the “glucocorticoid binding pIC50” value was greater than 7. In the case of `CC(C)(CC(O)(CNc1cccc2c1cnn2-c1ccccc1)C(F)(F)F)c1cccc2c1OCC2` (racemic) [Example 8, 4-(2,3-Dihydro-1-benzofuran-7-yl)-1,1,1-trifluoro-4-methyl-2-{[(1-phenyl-1H-indazol-4-yl)amino]methyl}-2-pentanol], the “glucocorticoid binding pIC50” value is reported as greater than 7. `COc1ccc(F)cc1C(C)(C)CC(O)(CNc1cc(C)cc2c1cnn2-c1ccccc1F)C(F)(F)F` (racemic) [Example 25, 1,1,1-Trifluoro-4-[5-fluoro-2-(methyloxy)phenyl]-2-({[1-(2-fluorophenyl)-6-methyl-1H-indazol-4-yl]amino}methyl)-4-methyl-2-pentanol] was tested, and the “glucocorticoid binding pIC50” value was greater than 7. With `COc1ccc(F)cc1C(C)(C)CC(O)(CNc1cc(C)cc2c1cnn2-c1ccc(O)cc1)C(F)(F)F` (stereo not drawn) [Example 20, 4-(4-{[4-[5-Fluoro-2-(methyloxy)phenyl]-2-hydroxy-4-methyl-2-(trifluoromethyl)pentyl]amino}-6-methyl-1H-indazol-1-yl)phenol] the “glucocorticoid binding pIC50” value was greater than 7. For `CC(C)(CC(O)(CNc1cccc2c1cnn2-c1ccccc1F)C(F)(F)F)c1cccc2c1OCC2` (racemic) [Example 10, 4-(2,3-Dihydro-1-benzofuran-7-yl)-1,1,1-trifluoro-2-({[1-(2-fluorophenyl)-1H-indazol-4-yl]amino}methyl)-4-methyl-2-pentanol], the “glucocorticoid binding pIC50” value was greater than 7. With `COc1ccc(F)cc1C(C)(C)CC(O)(CNc1cc(C)cc2c1cnn2-c1cccc(O)c1)C(F)(F)F` (stereo not drawn) [Example 23, 3-(4-{[4-[5-Fluoro-2-(methyloxy)phenyl]-2-hydroxy-4-methyl-2-(trifluoromethyl)pentyl]amino}-6-methyl-1H-indazol-1-yl)phenol] the “glucocorticoid binding pIC50” value was greater than 7. `Cc1cc(NC[C@](O)(CC(C)(C)c2cccc3c2OCC3)C(F)(F)F)c2cnn(-c3ccccc3)c2c1` [Example 17-B, (2R)-4-(2,3-Dihydro-1-benzofuran-7-yl)-1,1,1-trifluoro-4-methyl-2-{[(6-methyl-1-phenyl-1H-indazol-4-yl)amino]methyl}-2-pentanol] was tested, and the “glucocorticoid binding pIC50” value was greater than 7. With `COc1ccc(-n2ncc3c(NCC(O)(CC(C)(C)c4cc(F)ccc4OC)C(F)(F)F)cccc32)cc1` (racemic) [Example 3, 1,1,1-Trifluoro-4-[5-fluoro-2-(methyloxy)phenyl-4-methyl-2-({1-[4-(methyloxy)phenyl]-1H-indazol-4-yl}amino)methyl]-2-pentanol] the “glucocorticoid binding pIC50” value was greater than 7. In the case of `Cc1cc(NCC(O)(CC(C)(C)c2cc(F)ccc2O)C(F)(F)F)c2cnn(-c3cccc(O)c3)c2c1` (racemic) [Example 24, 4-Fluoro-2-[4,4,4-trifluoro-3-hydroxy-3-({[1-(3-hydroxyphenyl)-6-methyl-1H-indazol-4-yl]amino}methyl)-1,1-dimethylbutyl]phenol], the “glucocorticoid binding pIC50” value is reported as greater than 7. With `COc1cccc(-n2ncc3c(NCC(O)(CC(C)(C)c4cc(F)ccc4OC)C(F)(F)F)cc(C)cc32)c1` (stereo not drawn) [Example 22, 1,1,1-Trifluoro-4-[5-fluoro-2-(methyloxy)phenyl]-4-methyl-2-[({6-methyl-1-[3-(methyloxy)phenyl]-1H-indazol-4-yl}amino)methyl]-2-pentanol] the “glucocorticoid binding pIC50” value was greater than 7. In the case of `COc1ccc(F)cc1C(C)(C)C[C@@](O)(CNc1cc(C)cc2c1cnn2-c1ccc(F)cc1F)C(F)(F)F` (single isomer, unassigned) [Example 16-A], the “glucocorticoid binding pIC50” value is reported as greater than 7. In the case of `CCOC(=O)c1cccc(-n2ncc3c(NCC(O)(CC(C)(C)c4cc(F)ccc4OC)C(F)(F)F)cc(C)cc32)c1` (stereo not drawn) [Example 27, Ethyl 3-(4-{[4-[5-fluoro-2-(methyloxy)phenyl]-2-hydroxy-4-methyl-2-(trifluoromethyl)pentyl]amino}-6-methyl-1H-indazol-1-yl)benzoate], the “glucocorticoid binding pIC50” value is reported as greater than 7. `COc1ccc(F)cc1C(C)(C)CC(O)(CNc1cccc2c1cnn2-c1ccc(F)cc1F)C(F)(F)F` (single isomer, unassigned) [Example 4-B, 2-({[1-(2,4-Difluorophenyl)-1H-indazol-4-yl]amino}methyl)-1,1′-trifluoro-4-[5-fluoro-2-(methyloxy)phenyl]-4-methyl-2-pentanol] was tested, and the “glucocorticoid binding pIC50” value was greater than 7. With `COc1ccc(F)cc1C(C)(C)CC(O)(CNc1cccc2c1cnn2-c1ccc(F)cc1)C(F)(F)F` (racemic) [Example 2, 1,1,1-Trifluoro-4-[5-fluoro-2-(methyloxy)phenyl]-2-({[1-(4-fluorophenyl)-1H-indazol-4-yl]amino}methyl)-4-methyl-2-pentanol] the “glucocorticoid binding pIC50” value was greater than 7. `CCOC(=O)c1cccc(-n2ncc3c(NCC(O)(CC(C)(C)c4cccc5c4OCC5)C(F)(F)F)cccc32)c1` (racemic) [Example 9, Ethyl 3-(4-{[4-(2,3-dihydro-1-benzofuran-7-yl)-2-hydroxy-4-methyl-2-(trifluoromethyl)pentyl]amino}-1H-indazol-1-yl)benzoate] was tested, and the “glucocorticoid binding pIC50” value was greater than 7. `CCOC(=O)c1cccc(-n2ncc3c(NCC(O)(CC(C)(C)c4cc(F)ccc4OC)C(F)(F)F)cccc32)c1` (racemic) [Example 6, Ethyl 3-(4-{[4-[5-fluoro-2-(methyloxy)phenyl]-2-hydroxy-4-methyl-2-(trifluoromethyl)pentyl]amino}-1H-indazol-1-yl)benzoate] was tested, and the “glucocorticoid binding pIC50” value was greater than 7. `Cc1cc(NCC(O)(CC(C)(C)c2cc(F)ccc2O)C(F)(F)F)c2cnn(-c3ccc(O)cc3)c2c1` (stereo not drawn) [Example 21, 4-Fluoro-2-[4,4,4-trifluoro-3-hydroxy-3-({[1-(4-hydroxyphenyl)-6-methyl-1H-indazol-4-yl]amino}methyl)-1,1-dimethylbutyl]phenol] was tested, and the “glucocorticoid binding pIC50” value was greater than 7. `COc1ccc(F)cc1C(C)(C)CC(O)(CNc1cccc2c1cnn2-c1ccccc1F)C(F)(F)F` (single isomer, unassigned) [Example 1-A, 1,1,1-Trifluoro-4-[5-fluoro-2-(methyloxy)phenyl]-2-({[1-(2-fluorophenyl)-1H-indazol-4-yl]amino}methyl)-4-methyl-2-pentanol] was tested, and the “glucocorticoid binding pIC50” value was greater than 7. `CC(C)(CC(O)(CNc1cccc2c1cnn2-c1ccc(F)cc1)C(F)(F)F)c1cccc2c1OCC2` (racemic) [Example 11, 4-(2,3-Dihydro-1-benzofuran-7-yl)-1,1,1-trifluoro-2-({[1-(4-fluorophenyl)-1H-indazol-4-yl]amino}methyl)-4-methyl-2-pentanol] was tested, and the “glucocorticoid binding pIC50” value was greater than 7. `COc1ccc(F)cc1C(C)(C)CC(O)(CNc1cccc2c1cnn2-c1ccc(F)cc1)C(F)(F)F` (single isomer, unassigned) [Example 2-B, 1,1,1-Trifluoro-4-[5-fluoro-2-(methyloxy)phenyl]-2-({[1-(4-fluorophenyl)-1H-indazol-4-yl]amino}methyl)-4-methyl-2-pentanol] was tested, and the “glucocorticoid binding pIC50” value was greater than 7. In the case of `COc1ccc(F)cc1C(C)(C)CC(O)(CNc1cc(C)cc2c1cnn2-c1ccccc1)C(F)(F)F` (racemic) [Example 15, 1,1,1-Trifluoro-4-[5-fluoro-2-(methyloxy)phenyl]-4-methyl-2-{[(6-methyl-1-phenyl-1H-indazol-4-yl)amino]methyl}-2-pentanol], the “glucocorticoid binding pIC50” value is reported as greater than 7.
